Reference: article PMC6765184
Results are given in words; binding and its absence hold for the method and conditions named. For some assays here: Binding seen in cells or lysates may run through a third protein. Some binding calls cover weakened binding; strength is not graded here. Tags and fused reporters may be left off the sequences shown.

T1: Klp5^Q582P-HA (recombinant) (S. pombe) (UniProt O14343)
T1 sequence: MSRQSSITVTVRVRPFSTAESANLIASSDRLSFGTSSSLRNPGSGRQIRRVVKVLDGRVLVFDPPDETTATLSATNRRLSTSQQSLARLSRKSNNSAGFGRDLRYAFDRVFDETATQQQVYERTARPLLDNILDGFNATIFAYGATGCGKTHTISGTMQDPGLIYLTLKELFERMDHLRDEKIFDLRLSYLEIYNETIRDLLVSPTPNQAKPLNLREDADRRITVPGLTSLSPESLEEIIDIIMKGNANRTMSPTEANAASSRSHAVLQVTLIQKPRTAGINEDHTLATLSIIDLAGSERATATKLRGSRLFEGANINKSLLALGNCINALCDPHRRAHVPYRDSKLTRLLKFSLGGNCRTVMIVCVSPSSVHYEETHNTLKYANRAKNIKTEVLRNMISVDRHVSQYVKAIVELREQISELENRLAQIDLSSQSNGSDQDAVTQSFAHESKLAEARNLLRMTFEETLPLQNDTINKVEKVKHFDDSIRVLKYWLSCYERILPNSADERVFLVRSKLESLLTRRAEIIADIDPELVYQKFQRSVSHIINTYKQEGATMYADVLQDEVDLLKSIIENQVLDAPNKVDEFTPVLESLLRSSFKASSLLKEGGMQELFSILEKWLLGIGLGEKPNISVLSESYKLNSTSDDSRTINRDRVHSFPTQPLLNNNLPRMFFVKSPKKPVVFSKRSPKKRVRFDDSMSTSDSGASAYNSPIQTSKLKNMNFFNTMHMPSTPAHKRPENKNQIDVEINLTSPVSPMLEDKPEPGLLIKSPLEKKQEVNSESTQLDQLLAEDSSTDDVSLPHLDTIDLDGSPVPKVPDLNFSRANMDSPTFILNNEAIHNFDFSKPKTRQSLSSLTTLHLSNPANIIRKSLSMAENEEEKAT

T2: Klp6-GFP (S. pombe) (UniProt O59751)
T2 sequence: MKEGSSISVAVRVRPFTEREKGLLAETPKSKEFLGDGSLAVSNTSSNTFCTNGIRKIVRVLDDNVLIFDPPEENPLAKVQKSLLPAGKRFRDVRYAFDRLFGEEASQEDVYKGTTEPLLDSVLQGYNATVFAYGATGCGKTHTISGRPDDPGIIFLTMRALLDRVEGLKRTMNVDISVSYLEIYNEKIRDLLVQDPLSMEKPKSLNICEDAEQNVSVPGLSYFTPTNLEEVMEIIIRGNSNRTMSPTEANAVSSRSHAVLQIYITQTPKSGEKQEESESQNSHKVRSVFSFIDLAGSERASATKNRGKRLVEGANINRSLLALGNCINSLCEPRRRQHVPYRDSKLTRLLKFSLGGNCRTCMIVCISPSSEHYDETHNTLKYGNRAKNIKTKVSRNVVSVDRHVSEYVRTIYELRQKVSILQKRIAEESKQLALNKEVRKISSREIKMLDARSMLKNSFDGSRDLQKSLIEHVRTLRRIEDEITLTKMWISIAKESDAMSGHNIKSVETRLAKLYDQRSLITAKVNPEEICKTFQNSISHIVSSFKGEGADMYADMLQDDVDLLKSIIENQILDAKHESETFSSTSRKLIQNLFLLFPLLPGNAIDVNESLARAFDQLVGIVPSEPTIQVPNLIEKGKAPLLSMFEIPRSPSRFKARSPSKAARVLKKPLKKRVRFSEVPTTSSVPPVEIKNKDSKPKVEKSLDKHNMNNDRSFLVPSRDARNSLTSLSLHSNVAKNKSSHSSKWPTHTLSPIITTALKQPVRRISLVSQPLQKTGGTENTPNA

B1: Klp6-msfGFP (recombinant, full length) (protein, UniProt O59751 1-784)
chain: T2 sequence
B2: Klp5^Q582P-5FLAG (protein, UniProt O14343 1-883)
chain: T1 sequence

Columns and labels:
[1] = target: T1, Klp5^Q582P-HA (recombinant) (S. pombe); assay: SEC; co-expressed in E. coli; complex held on IgG Sepharose by protein A on Klp5, cut off with PreScission protease, then Superose-6 gel filtration in LEW buffer (50 mM HEPES pH 7.5, 300 mM KCl) at 4°C
Klp6-GFP (S. pombe) = target: T2, Klp6-GFP (S. pombe); assay: co-IP; Klp6-GFP precipitated with magnetic GFP-trap from 2.8 mg S. pombe whole cell extract, 1.5 h at 4°C, IP buffer (50 mM Tris-HCl pH 7.4, 1 mM EDTA, 150 mM NaCl, 0.05% NP-40, 10% glycerol); blot with anti-FLAG and anti-GFP

Binder | binding [1] | binding (Klp6-GFP (S. pombe))
B1 | binds | –
B2 | – | binds
